# Values of other authors as cited in patent US5543312A, “Pastuerella haemolytica glycoprotease gene and the purified enzyme” (priority 1991, dated 1996).
# By UniProt entry, the sequences of proteins in these tests, tags left out. Where a name states a change or a piece, a line headed by the entry shows the natural chain unless it says otherwise.
# UniProt P36175: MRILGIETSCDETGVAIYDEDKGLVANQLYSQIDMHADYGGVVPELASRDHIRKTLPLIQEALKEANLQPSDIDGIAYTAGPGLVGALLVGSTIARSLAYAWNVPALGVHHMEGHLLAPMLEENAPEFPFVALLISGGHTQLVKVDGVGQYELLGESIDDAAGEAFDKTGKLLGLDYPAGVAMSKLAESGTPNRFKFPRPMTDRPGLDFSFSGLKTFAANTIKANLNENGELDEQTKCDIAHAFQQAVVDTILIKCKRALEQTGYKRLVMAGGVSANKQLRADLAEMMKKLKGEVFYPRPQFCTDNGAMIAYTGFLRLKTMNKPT
# For at least one compound, name, drawing or mass did not settle the structure.
# Molecular target: P. haemolytica A1 protease (Mannheimia haemolytica, UniProt P36175)
# Conditions: Otulakowski et al.; cited from earlier work
compound,measurement,value
CC(C)C[C@H](NC(=O)CNC(=O)C=Cc1ccco1)C(N)=O [furoylacryloylglycyl-leucinamide],Hydrolysis of the thermolysin substrate,inability
